No constants are given. Whether binding was seen depends on the method and setting. Binding seen in cells or lysates may run through a third protein. A yes stands for co-enrichment or nearness to the bait. Other partners may have been found.
B1: PRPF3 (protein, UniProt O43395 1-683)
chain: MALSKRELDELKPWIEKTVKRVLGFSEPTVVTAALNCVGKGMDKKKAADHLKPFLDDSTLRFVDKLFEAVEEGRSSRHSKSSSDRSRKRELKEVFGDDSEISKESSGVKKRRIPRFEEVEEEPEVIPGPPSESPGMLTKLQIKQMMEAATRQIEERKKQLSFISPPTPQPKTPSSSQPERLPIGNTIQPSQAATFMNDAIEKARKAAELQARIQAQLALKPGLIGNANMVGLANLHAMGIAPPKVELKDQTKPTPLILDEQGRTVDATGKEIELTHRMPTLKANIRAVKREQFKQQLKEKPSEDMESNTFFDPRVSIAPSQRQRRTFKFHDKGKFEKIAQRLRTKAQLEKLQAEISQAARKTGIHTSTRLALIAPKKELKEGDIPEIEWWDSYIIPNGFDLTEENPKREDYFGITNLVEHPAQLNPPVDNDTPVTLGVYLTKKEQKKLRRQTRREAQKELQEKVRLGLMPPPEPKVRISNLMRVLGTEAVQDPTKVEAHVRAQMAKRQKAHEEANAARKLTAEQRKVKKIKKLKEDISQGVHISVYRVRNLSNPAKKFKIEANAGQLYLTGVVVLHKDVNVVVVEGGPKAQKKFKRLMLHRIKWDEQTSNTKGDDDEESDEEAVKKTNKCVLVWEGTAKDRSFGEMKFKQCPTENMAREHFKKHGAEHYWDLALSESVLESTD
B2: CSTF1 (protein, UniProt Q05048 1-431)
chain: MYRTKVGLKDRQQLYKLIISQLLYDGYISIANGLINEIKPQSVCAPSEQLLHLIKLGMENDDTAVQYAIGRSDTVAPGTGIDLEFDADVQTMSPEASEYETCYVTSHKGPCRVATYSRDGQLIATGSADASIKILDTERMLAKSAMPIEVMMNETAQQNMENHPVIRTLYDHVDEVTCLAFHPTEQILASGSRDYTLKLFDYSKPSAKRAFKYIQEAEMLRSISFHPSGDFILVGTQHPTLRLYDINTFQCFVSCNPQDQHTDAICSVNYNSSANMYVTGSKDGCIKLWDGVSNRCITTFEKAHDGAEVCSAIFSKNSKYILSSGKDSVAKLWEISTGRTLVRYTGAGLSGRQVHRTQAVFNHTEDYVLLPDERTISLCCWDSRTAERRNLLSLGHNNIVRCIVHSPTNPGFMTCSDDFRARFWYRRSTTD

Chains of the proteins cited; added tags and fusions are not shown.
UniProt Q03468: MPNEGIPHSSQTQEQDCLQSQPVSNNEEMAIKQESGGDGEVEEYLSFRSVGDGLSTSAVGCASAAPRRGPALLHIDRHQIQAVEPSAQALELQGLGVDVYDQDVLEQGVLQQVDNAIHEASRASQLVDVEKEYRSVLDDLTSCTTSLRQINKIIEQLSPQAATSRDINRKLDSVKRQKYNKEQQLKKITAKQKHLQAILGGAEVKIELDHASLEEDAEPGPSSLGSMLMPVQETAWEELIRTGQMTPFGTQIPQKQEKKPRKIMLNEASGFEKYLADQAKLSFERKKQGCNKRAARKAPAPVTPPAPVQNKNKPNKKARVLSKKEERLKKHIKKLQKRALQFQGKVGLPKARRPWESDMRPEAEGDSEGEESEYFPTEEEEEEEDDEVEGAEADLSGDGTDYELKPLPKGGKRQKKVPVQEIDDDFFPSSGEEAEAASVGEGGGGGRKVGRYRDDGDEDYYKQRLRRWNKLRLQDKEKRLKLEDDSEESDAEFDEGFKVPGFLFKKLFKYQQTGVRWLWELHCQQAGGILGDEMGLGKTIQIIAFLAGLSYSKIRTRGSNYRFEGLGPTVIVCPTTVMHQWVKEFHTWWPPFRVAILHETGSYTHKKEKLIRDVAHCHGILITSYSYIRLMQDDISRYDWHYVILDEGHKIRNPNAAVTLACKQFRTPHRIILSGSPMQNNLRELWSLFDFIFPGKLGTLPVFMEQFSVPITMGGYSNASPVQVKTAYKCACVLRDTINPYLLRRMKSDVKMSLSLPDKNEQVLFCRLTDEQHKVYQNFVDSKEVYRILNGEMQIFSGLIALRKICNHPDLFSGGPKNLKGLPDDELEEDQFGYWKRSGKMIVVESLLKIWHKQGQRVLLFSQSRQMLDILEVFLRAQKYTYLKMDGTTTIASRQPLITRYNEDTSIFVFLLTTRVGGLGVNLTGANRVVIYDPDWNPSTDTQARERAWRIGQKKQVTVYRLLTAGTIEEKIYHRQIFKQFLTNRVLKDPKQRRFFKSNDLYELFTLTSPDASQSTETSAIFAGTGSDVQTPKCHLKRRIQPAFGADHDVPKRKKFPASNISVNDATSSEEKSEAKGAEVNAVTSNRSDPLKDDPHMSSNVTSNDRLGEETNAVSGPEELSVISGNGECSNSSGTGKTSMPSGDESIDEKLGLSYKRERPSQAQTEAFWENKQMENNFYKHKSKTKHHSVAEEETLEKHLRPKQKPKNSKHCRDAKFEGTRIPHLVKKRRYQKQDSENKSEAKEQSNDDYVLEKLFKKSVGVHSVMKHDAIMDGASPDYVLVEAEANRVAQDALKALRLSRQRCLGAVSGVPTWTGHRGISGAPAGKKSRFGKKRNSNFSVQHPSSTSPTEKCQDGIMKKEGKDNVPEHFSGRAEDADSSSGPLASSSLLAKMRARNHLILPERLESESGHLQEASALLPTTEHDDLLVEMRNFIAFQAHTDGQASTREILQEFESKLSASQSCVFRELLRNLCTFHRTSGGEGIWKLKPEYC
UniProt Q14999: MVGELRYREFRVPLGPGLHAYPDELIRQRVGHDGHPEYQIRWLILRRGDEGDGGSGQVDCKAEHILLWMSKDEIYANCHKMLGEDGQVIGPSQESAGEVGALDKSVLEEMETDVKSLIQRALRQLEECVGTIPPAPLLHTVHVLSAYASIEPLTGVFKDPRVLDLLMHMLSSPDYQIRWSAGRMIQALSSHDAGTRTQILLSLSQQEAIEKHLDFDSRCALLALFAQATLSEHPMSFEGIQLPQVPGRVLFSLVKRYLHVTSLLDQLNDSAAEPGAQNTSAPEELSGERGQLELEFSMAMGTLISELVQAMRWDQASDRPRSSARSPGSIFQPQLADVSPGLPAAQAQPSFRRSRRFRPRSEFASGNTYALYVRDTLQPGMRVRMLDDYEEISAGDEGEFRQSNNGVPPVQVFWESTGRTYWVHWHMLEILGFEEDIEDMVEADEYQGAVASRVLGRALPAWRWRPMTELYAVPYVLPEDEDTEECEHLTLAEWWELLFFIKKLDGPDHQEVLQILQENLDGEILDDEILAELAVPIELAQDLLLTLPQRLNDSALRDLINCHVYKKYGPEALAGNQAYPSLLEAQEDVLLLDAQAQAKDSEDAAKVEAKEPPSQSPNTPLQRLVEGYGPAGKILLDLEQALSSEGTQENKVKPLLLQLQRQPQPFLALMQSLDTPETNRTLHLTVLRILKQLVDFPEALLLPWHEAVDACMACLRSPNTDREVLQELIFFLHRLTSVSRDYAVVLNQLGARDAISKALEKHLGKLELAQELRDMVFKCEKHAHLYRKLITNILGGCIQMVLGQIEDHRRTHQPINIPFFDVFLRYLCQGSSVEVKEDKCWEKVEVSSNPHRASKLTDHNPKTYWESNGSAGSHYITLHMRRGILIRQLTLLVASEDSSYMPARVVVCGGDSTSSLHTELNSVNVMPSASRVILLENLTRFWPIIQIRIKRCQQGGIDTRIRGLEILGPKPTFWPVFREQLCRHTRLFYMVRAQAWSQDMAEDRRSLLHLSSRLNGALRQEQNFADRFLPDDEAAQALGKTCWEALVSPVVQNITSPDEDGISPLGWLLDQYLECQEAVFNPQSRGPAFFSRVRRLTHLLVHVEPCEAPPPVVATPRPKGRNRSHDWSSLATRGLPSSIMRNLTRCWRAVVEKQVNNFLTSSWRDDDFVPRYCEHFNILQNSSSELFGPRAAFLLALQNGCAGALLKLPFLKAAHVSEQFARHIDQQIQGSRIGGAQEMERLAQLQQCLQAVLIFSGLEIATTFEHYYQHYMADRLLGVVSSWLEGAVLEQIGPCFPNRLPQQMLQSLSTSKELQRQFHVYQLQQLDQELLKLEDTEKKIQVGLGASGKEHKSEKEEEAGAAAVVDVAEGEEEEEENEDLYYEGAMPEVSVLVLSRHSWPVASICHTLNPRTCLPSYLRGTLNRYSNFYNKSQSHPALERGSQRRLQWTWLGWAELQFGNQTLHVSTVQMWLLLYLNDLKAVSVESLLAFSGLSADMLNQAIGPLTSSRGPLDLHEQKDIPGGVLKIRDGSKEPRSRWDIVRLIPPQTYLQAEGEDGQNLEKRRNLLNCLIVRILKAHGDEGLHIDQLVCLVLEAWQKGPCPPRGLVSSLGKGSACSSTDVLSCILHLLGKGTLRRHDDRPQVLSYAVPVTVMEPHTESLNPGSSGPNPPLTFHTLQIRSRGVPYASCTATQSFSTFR
UniProt Q92841: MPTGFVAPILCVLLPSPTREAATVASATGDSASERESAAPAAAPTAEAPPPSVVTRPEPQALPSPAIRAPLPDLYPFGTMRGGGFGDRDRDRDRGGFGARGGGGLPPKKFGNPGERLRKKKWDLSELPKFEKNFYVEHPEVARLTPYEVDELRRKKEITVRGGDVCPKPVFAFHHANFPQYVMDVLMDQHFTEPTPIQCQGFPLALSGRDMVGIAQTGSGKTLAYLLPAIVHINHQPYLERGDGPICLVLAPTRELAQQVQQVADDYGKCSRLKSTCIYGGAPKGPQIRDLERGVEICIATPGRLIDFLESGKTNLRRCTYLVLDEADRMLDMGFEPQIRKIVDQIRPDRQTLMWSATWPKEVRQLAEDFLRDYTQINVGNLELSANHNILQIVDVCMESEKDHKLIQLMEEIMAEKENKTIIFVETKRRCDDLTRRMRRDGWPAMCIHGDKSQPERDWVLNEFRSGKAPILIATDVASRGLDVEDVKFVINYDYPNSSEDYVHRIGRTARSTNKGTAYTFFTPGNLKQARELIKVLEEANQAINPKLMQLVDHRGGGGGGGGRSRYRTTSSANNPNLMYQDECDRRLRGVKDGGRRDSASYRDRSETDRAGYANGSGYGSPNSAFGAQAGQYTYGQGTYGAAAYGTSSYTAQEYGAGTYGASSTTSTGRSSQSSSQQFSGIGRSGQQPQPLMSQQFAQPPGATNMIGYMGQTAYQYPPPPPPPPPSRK
UniProt O60264: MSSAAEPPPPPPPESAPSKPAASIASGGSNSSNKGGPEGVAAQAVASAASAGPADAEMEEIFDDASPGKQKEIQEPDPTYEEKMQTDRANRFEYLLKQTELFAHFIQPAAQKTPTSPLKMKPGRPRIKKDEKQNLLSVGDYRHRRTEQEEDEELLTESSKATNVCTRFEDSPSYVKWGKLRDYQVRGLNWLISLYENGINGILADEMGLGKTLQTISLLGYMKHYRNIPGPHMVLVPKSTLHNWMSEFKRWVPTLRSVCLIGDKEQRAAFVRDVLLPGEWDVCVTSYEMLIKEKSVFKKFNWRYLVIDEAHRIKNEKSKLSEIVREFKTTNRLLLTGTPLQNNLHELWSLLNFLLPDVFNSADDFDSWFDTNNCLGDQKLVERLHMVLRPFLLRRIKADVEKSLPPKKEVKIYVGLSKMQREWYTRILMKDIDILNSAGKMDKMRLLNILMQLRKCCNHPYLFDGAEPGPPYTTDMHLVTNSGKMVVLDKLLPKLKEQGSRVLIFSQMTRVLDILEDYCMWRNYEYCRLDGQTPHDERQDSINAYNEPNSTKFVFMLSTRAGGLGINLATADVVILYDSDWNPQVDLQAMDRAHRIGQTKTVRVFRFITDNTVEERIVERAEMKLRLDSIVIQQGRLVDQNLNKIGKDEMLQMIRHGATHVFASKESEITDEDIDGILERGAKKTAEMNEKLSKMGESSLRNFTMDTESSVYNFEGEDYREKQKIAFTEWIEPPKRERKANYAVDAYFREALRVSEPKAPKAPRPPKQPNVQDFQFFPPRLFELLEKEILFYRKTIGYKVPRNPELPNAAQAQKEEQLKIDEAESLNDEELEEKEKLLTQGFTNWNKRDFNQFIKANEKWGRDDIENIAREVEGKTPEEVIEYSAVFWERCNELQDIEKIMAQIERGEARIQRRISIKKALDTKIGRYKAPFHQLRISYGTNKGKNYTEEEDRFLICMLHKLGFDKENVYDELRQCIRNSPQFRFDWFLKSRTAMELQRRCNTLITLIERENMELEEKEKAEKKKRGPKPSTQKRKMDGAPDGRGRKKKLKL
UniProt Q93009: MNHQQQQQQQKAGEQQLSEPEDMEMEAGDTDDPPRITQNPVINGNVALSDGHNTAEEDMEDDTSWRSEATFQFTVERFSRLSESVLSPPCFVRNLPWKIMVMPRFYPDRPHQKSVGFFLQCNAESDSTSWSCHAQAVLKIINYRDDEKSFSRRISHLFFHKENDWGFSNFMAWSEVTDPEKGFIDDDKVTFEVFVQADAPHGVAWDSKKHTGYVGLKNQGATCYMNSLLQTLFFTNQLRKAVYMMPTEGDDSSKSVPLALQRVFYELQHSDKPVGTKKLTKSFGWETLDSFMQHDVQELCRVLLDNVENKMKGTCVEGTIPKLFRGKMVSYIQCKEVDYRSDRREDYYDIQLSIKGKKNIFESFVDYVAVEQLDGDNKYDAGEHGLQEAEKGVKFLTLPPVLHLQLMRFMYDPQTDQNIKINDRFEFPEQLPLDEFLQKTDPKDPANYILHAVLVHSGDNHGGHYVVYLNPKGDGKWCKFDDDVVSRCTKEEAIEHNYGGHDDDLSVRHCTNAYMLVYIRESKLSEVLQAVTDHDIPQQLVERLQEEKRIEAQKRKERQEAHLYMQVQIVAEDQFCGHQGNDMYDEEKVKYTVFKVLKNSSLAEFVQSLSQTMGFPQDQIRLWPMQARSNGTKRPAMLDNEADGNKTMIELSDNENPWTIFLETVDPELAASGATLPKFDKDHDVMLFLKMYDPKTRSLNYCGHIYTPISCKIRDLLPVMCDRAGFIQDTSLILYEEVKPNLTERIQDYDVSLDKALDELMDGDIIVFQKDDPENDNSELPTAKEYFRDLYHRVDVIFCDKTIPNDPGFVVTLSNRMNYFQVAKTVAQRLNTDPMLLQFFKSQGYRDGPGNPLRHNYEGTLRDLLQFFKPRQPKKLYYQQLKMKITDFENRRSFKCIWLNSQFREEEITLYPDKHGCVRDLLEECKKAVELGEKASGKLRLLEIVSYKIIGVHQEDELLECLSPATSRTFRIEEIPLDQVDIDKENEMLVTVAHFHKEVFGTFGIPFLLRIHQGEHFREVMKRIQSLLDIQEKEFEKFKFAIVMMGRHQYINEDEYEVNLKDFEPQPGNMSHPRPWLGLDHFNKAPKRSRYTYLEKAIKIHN
UniProt Q13547: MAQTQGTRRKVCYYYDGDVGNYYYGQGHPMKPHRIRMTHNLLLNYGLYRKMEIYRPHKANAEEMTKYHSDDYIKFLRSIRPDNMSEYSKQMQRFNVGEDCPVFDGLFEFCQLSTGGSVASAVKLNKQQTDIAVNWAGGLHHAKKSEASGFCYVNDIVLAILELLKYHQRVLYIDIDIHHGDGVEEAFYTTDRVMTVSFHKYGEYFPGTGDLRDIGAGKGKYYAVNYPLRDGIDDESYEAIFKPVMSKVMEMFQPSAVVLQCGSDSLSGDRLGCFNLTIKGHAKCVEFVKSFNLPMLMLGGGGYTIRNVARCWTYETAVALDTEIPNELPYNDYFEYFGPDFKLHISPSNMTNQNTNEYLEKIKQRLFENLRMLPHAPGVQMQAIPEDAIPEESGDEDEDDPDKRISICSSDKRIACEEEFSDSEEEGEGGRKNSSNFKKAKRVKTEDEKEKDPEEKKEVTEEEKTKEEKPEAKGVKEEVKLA

Molecular target: CSB-TAP fusion protein (human) (UniProt Q03468)
Test: affinity purification with mass spectrometry; tandem affinity purification of CSB-TAP from extracts of stably transfected CSIAN cells (IPP150 lysis buffer: 50 mM Tris pH 8.0, 150 mM NaCl, 10% glycerol, 0.1% NP-40); IgG sepharose, TEV elution, calmodulin beads, 4°C; bound proteins on a 4-12% Bis-Tris gel, LC-MS/MS; no exogenous DNA damage

Molecule	binding
CUL7 (from UniProt Q14999 1-1698)	binds
DDX3X (from UniProt O00571 1-662)	binds
DDX5 (from UniProt P17844 1-614)	binds
DDX17 (from UniProt Q92841 1-729)	binds
DDX23 (from UniProt Q9BUQ8 1-820)	binds
PSMD3 (from UniProt O43242 1-534)	binds
RBBP4 (from UniProt Q09028 1-425)	binds
SMARCA1 (from UniProt P28370 1-1042)	binds
SMARCA2 (from UniProt P51531 1-1590)	binds
SMARCA4 (from UniProt P51532 1-1647)	binds
SMARCA5 (from UniProt O60264 1-1052)	binds
Topoisomerase I (from UniProt P11387 1-765)	binds
USP7 (from UniProt Q93009 1-1102)	binds
XRCC5 (from UniProt P13010 1-732)	binds
histone deacetylase 1 (from UniProt Q13547 1-482)	binds

Molecular target: CSB-TAP fusion protein (human) (UniProt Q03468)
Test: as above
Remark: another data set of the same source

Molecule	binding
B1	binds
B2	binds
